Source: PubChem BioAssay AID488835 (Broad Institute, 2010)
In all, about 1,400 compounds went through this assay and about 140 (10%) were called active.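 Rule for the calls: active = Half-maximal inhibitory dose from the fit at or below ten times the top valid tested dose; inconclusive = Invalid fit, or flat curve showing 30 to 70% inhibition; inactive = the rest.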 Only a part is listed here, and it is no random draw. Potency and affinity values are given separately.

Amino acid sequences for entries named in this document (tags omitted). Residues count along the entry.
UniProt Q9H3R0, 1-420 limits assumed: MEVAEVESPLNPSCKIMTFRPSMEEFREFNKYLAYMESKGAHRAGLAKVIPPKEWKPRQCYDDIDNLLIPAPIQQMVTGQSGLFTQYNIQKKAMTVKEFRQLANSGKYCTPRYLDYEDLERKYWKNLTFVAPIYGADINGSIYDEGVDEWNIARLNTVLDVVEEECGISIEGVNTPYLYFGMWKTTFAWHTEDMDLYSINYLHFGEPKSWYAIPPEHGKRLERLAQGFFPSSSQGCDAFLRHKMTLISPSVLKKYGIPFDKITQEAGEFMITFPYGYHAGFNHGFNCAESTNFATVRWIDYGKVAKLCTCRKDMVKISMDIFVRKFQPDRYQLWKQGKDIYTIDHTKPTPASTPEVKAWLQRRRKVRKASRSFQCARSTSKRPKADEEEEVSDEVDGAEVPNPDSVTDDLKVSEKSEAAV

Target: Lysine-specific demethylase 4C (Homo sapiens) (UniProt Q9H3R0)
Assay: inhibition of JMJD2C H3K9me3 demethylation – biochemical, DELFIA europium, cherry-picked samples, dose response (AID 488835);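 note: signal is the H3K9me2 demethylation product detected by a dimethyl-specific antibody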
Conditions: GST-JMJD2C(1-420); at 6 µM (top of the series) unless noted

Activity change, negative = inhibition, inactive:
N#Cc1ccc(OCC(=O)N2CCN(S(=O)(=O)c3cccs3)CC2)cc1 2.58% [at 1.6 µM], NC(=O)C1CCN(C(=O)c2ccc(Oc3cc(Cl)cc(Cl)c3)o2)CC1 -2.91%, CCN(C(=O)C(C)Sc1ccc(S(=O)(=O)N2CCOCC2)cn1)c1ccccc1 (stereo not given) -3.51%, Cc1ccc(N2NC3(CCN(C(N)=O)CC3)NC2=O)cc1 -5.57%, CN(c1ccc(C(=O)O)cc1)S(=O)(=O)c1ccccc1 3.22%, O=C(/C=C/c1cccs1)NC1CCS(=O)(=O)C1 (stereo not given) -6.7%, COc1ccc(N2C(=O)CSC23CCCCC3)cc1 18.5%, CC(C)(C)c1ccc(C2(C)NC(=O)N(CC(=O)Nc3ccc4c(c3)OCO4)C2=O)cc1 (stereo not given) 7.1%, NS(=O)(=O)c1ccc(CNC(=S)Nc2ccc(F)c(Cl)c2)cc1 2.64%, O=S1(=O)CCC(N=Nc2c(O)n(Cc3ccccc3)c3ccccc23)C1 (stereo not given) -0.825%, Cc1cccc(NC(=O)CC2Nc3cccc4cccc(c34)NC2=O)c1 (stereo not given) -1.31%, CC(C)n1cnc2c(NCc3ccccc3)nc(NCc3ccccc3)nc21 -3.21%, C[C@]12c3[nH]c4ccccc4c3CCN1C(=O)C(CC(=O)NCc1cccc(C(F)(F)F)c1)C[C@@H]2C(=O)N1CCCCC1 (stereo not given in full) 1.34%, CCc1ccc([C@@H]2CC=C(C(=O)O)[C@H](c3ccc(Br)cc3)N2S(=O)(=O)c2ccc(C)cc2)cc1 -7.79%, COc1ccc(NC(=O)N(C)C[C@H]2Oc3ccc(NC(=O)CCC(F)(F)F)cc3C(=O)N([C@H](C)CO)C[C@@H]2C)cc1 -2.68%, O=C(NCC1CCCO1)C(c1ccc(F)cc1)N(CCCN1CCOCC1)C(=O)c1ccc(-c2ccccc2)[nH]1 (stereo not given) 10.5%, CCOC(=O)C1=C(N)Oc2ccc3ccccc3c2C1c1cccnc1 (stereo not given) 13.6%, CCCN(CC(=O)Nc1ccccc1C)C(=O)C1CCN(S(=O)(=O)c2ccccc2C(F)(F)F)CC1 5.43%, Cc1c(C(c2ccc([N+](=O)[O-])cc2)c2c(C)n(C)n(-c3ccccc3)c2=O)c(=O)n(-c2ccccc2)n1C 4.33%, O=C(O)Cn1cc(/C=C2/SC(=O)N(CC(=O)N3CCCCCC3)C2=O)c2ccccc21 2.27%, c1csc(Cn2nnnc2CN2CCN(c3nc4ccccc4s3)CC2)c1 4.59%, CCN(CC(=O)Nc1ccc2c(c1)OCCO2)C(=O)CC1CCCC1 -2.11%, COc1ccc(/C=N/n2c(=O)[nH]c3c([nH]c4ccc(Br)cc43)c2=O)cc1CN1CCOCC1 -1.91%, CNC[C@@H]1Oc2c(NC(=O)Nc3ccccc3)cccc2C(=O)N([C@@H](C)CO)C[C@H]1C 0.718%, CCOC(=O)c1csc(N/N=C2\CCc3ccccc32)n1 4.71%, CCCC(=O)Nc1ccc(Oc2ccc(NC(=O)CCC)cc2)cc1 12.8%, NC(=O)NC(=O)CSc1nnc(-c2ccco2)n1Cc1ccccc1 -6.87%, O=C1/C(=C/c2cccs2)COc2ccccc21 0.426%, CC(=O)N1CCc2cc(S(=O)(=O)NC(CC(C)C)C(=O)Nc3cc(C(=O)O)ccc3C)ccc21 (stereo not given) -5.79%, COc1ccc(C2CC(c3cccs3)=NN2S(=O)(=O)c2ccc(C)cc2)cc1 (stereo not given) -2.78%, Cc1cccc(OCCCn2c(=O)oc3ccc(C)cc32)c1 -1.05%, Cc1cccc(N2CCN(C(=O)c3ccc(CS(=O)(=O)c4ccccc4C)o3)CC2C)c1 (stereo not given) -3.17%, c1ccc2c(c1)ccc1nnc(-c3ccc4c(c3)OCO4)n12 5.7%, Cc1noc(C)c1S(=O)(=O)N(C)C[C@H]1Oc2c(cccc2N(C)C)C(=O)N([C@H](C)CO)C[C@@H]1C 0.203%, O=C(Nc1ccccc1C(=O)N1CCOCC1)c1noc2c1CCCC2 3.29%, Cc1ccccc1CNc1nnnn1C 5.25%, Cc1cc(C)nc(NCc2ccc(Cl)cc2)n1 -2.03%, Cc1nn(Cc2ccc([N+](=O)[O-])cc2)c(=O)n1-c1cccc(Cl)c1 3.54%, COc1cccc(C(C[N+](=O)[O-])c2c(C)[nH]n(-c3ccccc3)c2=O)c1 (stereo not given) -3.47%, CC(C)(C)c1ccc(OCCC(=O)NC2=NCCS2)cc1 3.4%, Cc1ccc(S(=O)(=O)Nc2ccc3c(c2)C(=O)N([C@H](C)CO)C[C@@H](C)[C@@H](CN(C)C(=O)Nc2cccc4ccccc24)O3)cc1 2.6%, O=C(Cn1cnc2c(OCc3ccccc3)ncnc21)NCCCc1ccccc1 -1.56%, Cc1cccnc1Nc1nc(-c2ccc(O)cc2)cs1 -2.68%, COc1cccc(Oc2nccc(N(C)C)c2C#N)c1 -0.396%, O=C(CSc1nnc(CNC(=O)c2ccccc2F)o1)NCCc1ccccc1 2.93%, CCOc1cc(/C=C\c2[nH]c(=O)[nH]c(=O)c2[N+](=O)[O-])ccc1OC(C)CC (stereo not given) -8.92%, C#CCOCCOCCOCCNc1nc(N2CCOCC2)nc(N2CCN(C(=O)[C@H](Cc3cc4ccccc4[nH]3)n3cc([C@@H](N)CC(C)C)nn3)CC2)n1 2.27%, Cn1c(=O)c2[nH]c(N3CCN(c4cccc(O)c4)CC3)nc2n(C)c1=O 2.66%, C[C@H](CO)N1C[C@H](C)[C@@H](CN(C)S(C)(=O)=O)Oc2ccc(N(C)C)cc2C1=O 3.79%, COc1ccc(-n2cc(CNCCc3cscn3)c(-c3ccccc3Cl)n2)cc1 7.18%, COC(=O)[C@]1(C)N[C@H](CN(C)C(=O)Nc2ccccc2)[C@@H]2C(=O)N(Cc3ccccc3)C(=O)[C@@H]21 -0.144%, CCN(C[C@H]1N[C@@](CC)(C(=O)OC)[C@H]2C(=O)N(C)C(=O)[C@@H]12)S(=O)(=O)c1ccc(C(F)(F)F)cc1 5.54%, O=[N+]([O-])c1ccccc1NCc1ccc(Cl)cc1 -4.49%, C/C(=N\Nc1nc(C(=O)O)cs1)c1ccccc1 -0.0561%, Cc1ccc(N(CC(=O)N2CCn3c2nc2ccccc23)S(=O)(=O)c2c(C)n[nH]c2C)cc1 1.4%, COc1cc2nc(-c3ccccc3C)oc(=O)c2cc1OC -4.96%, COc1ccc2c(C)nc(Nc3nc(C)cc(C)n3)nc2c1 -4.81%, CCc1nc(NCc2ccc3c(c2)OCO3)c2oc3ccccc3c2n1 4.63%, O=S(=O)(Nc1ccccc1)c1ccc(NS(=O)(=O)c2c(F)cccc2F)cc1 -0.423%, COC(=O)c1nn(Cc2ccccc2)c(=O)c2ccccc12 3.16%, O=C1CCCc2c1nc(-c1ccccc1)n2O -4.82%, COC(=O)c1ccc(/C=C/c2c(-c3ccc(OC)cc3)sc3ccccc23)cc1 7.35%, CN(C)C(=O)c1cccc(-c2csc(N3CCC(C(N)=O)CC3)n2)c1 0.839%, O=C(O)CC(NC(=O)Cc1ccc(Cl)cc1)c1ccco1 (stereo not given) 1.79%, CN1C(=O)/C(=C2\SC(=S)N(C(CCC(=O)O)C(=O)O)C2=O)c2ccccc21 (stereo not given) 3.54%, CCOC(=O)N1CCN(S(=O)(=O)c2ccc3c(c2)CCN3C(=O)C2CC2)CC1 -8.56%, C/C=C(\C)c1nnc(NC(=O)C(C)C)s1 9.8%, CN1CCN(C(=O)CN(c2ccccc2)S(=O)(=O)N(C)C)CC1 -2.46%, CC12CN3CC(C)(CN(C1)C3c1ccc3ccccc3c1O)C2=O (stereo not given) 10.4%, CC(C)=CC(=O)O[C@@H]1Cc2c(ccc3ccc(=O)oc23)OC1(C)C -1.34%, C[C@H]1CN([C@@H](C)CO)C(=O)c2cccc(NC(=O)C3CC3)c2O[C@H]1CN(C)Cc1ccncc1 1.11%, COc1ccc2sc(-c3ccc(S(C)(=O)=O)cc3)c(C#CCO)c2c1 -5.21%, COc1ccc(OC)c(N(CC(=O)NCc2ccncc2)S(C)(=O)=O)c1 -3.48%, Cc1cccc(NC(=S)N(CCN2CCOCC2)Cc2cc3cc4c(cc3[nH]c2=O)OCO4)c1 3.04%, COc1ccc(/C=C/C(=O)NC(=S)NNC(=O)Cc2cccs2)cc1OC -1.6%, CCOC(=O)c1[nH]c(C)c(/C(O)=C2\C(=O)C(=O)N(CCCN(CC)CC)C2c2cccnc2)c1C (stereo not given) -0.553%, Cn1c2c(c(=O)n(C)c1=O)CN(CCCN1CCOCC1)CN2 4.17%, CCCc1nnc(SCC(=O)N2CCCC2)n1CC1CCCO1 (stereo not given) -5.64%, Nc1ccc(S(=O)(=O)NC2(C(F)(F)F)NC(=O)N(c3ccc(F)cc3)C2=O)cc1 (stereo not given) -0.954%, C=CCOC(=O)C1=C(C)NC(=O)NC1c1ccc(OC(=O)c2ccco2)c(OC)c1 (stereo not given) 1.3%, Cc1ccc(N2CC(C(=O)Nc3ccc(N(C)C)cc3)CC2=O)cc1C (stereo not given) -0.0625%, C=CCn1cnc2scc(-c3ccc(C)cc3)c2c1=O 4.03%, NNC(=O)c1nn(-c2ccc(Cl)cc2)ccc1=O 0.759%, COC(=O)c1ccc(CSc2nnc(N)s2)o1 3.51%, COc1ccccc1N=Cc1c(C)c(C#N)c2[nH]c3ccccc3n2c1=O -9.22%
